Source: patent US20180169183A1
Results are given in words; binding and its absence hold for the method and conditions named. Some entries that bind do so weakly or less than the wild type.

Chains of the proteins cited; added tags and fusions are not shown. Lines headed by an entry give the natural chain unless they say otherwise; changes in a name come on top. Residues count along the entry.
UniProt O14763: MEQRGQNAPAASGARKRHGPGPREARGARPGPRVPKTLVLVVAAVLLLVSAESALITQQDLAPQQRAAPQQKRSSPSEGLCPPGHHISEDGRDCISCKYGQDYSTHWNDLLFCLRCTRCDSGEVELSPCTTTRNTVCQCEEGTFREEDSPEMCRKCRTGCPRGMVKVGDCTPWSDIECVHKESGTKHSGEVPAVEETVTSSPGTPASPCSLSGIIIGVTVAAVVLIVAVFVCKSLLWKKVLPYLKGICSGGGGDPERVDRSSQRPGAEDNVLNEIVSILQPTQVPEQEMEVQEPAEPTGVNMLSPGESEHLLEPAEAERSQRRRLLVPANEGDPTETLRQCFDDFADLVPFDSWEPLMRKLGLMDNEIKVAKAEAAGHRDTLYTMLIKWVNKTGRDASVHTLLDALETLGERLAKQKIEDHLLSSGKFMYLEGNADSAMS
TRAIL receptor DR5 on Jurkat cells: residues 56-440 of O14763
TRAIL-receptor DR5 (on the Biacore chip): residues 56-182 of O14763
UniProt O43508: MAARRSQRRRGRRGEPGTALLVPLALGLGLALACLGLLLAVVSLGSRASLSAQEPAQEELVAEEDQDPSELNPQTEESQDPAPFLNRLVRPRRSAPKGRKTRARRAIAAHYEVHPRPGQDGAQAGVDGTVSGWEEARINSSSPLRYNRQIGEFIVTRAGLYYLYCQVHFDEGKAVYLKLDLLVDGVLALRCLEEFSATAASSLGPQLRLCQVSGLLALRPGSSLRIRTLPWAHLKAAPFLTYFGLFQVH

Key:
[1] = target: TRAIL receptor DR5 on Jurkat cells (human) (UniProt O14763); test: flow cytometry at 4 C, loss of anti-DR5 staining on Jurkat cells
[2] = target: TRAIL-receptor DR5 (on the Biacore chip) (UniProt O14763); test: Biacore, chip covered with DR5
[3] = target: TRAIL receptor DR5 on Jurkat cells (human) (UniProt O14763); test: title of Example 4 (neutralizing antibodies and flow cytometry on Jurkat cells)
[4] = target: TRAIL-receptor DR5 (on the Biacore chip) (UniProt O14763); test: Biacore, legend of FIG. 12
[5] = target: TRAIL-receptor DR5 (on the Biacore chip) (UniProt O14763); test: Biacore, title of Example 11
[6] = target: TRAIL receptor DR5 on Jurkat cells (human) (UniProt O14763); test: flow cytometry, legend of FIGS. 3A-B

Measured: binding

TWEAK-Fn14-TRAIL complex (from UniProt O43508 94-249)
binds: all assays above
